Laboratory results published in PMC5309897.
Results are given in words; binding and its absence hold for the method and conditions named. In cells and extracts the contact can be indirect. Some results given as binding are weak or reduced against the parent protein; the word gives no strength.

Chains of the proteins cited; added tags and fusions are not shown.
UniProt Q86WV6: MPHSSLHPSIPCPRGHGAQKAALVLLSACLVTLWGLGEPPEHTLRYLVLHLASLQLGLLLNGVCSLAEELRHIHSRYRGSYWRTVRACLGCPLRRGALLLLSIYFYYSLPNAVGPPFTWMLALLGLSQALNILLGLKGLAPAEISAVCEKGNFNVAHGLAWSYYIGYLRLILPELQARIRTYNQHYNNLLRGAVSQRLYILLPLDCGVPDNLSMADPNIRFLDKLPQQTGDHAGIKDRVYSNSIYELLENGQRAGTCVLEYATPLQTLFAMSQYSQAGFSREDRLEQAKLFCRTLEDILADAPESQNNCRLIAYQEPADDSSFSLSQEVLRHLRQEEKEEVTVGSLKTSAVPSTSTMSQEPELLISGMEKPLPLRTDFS
UniProt Q16666: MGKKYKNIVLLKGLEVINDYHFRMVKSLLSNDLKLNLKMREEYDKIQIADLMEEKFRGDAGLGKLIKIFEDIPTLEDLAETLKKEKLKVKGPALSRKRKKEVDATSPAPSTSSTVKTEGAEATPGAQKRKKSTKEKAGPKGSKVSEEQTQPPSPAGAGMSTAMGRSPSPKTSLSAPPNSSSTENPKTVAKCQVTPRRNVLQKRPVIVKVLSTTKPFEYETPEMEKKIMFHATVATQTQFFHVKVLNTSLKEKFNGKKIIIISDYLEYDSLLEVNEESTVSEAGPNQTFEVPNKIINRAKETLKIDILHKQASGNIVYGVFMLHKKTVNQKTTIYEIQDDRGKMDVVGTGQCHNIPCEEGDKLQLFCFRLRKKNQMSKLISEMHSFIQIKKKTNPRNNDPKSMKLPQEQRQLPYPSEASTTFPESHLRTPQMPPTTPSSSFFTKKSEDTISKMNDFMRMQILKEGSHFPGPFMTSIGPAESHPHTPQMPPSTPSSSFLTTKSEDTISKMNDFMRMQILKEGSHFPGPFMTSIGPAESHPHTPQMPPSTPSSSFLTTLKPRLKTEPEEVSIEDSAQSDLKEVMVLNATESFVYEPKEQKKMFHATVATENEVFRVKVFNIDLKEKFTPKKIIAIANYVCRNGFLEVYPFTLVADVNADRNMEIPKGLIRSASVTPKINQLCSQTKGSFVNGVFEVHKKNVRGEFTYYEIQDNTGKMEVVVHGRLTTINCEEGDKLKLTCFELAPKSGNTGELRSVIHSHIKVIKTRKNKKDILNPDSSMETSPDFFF

Tests used:
[1] = target: stimulator of interferon genes (STING), endogenous in primary human monocyte-derived macrophages (human (endogenous in primary MDMs)) (UniProt Q86WV6); assay: co-IP; STING-IP protocol on cell lysates of primary human MDMs, immunoblot
[2] = target: interferon-gamma inducible factor 16 (IFI16), endogenous in THP-1 cells (human (endogenous in THP-1)) (UniProt Q16666); assay: co-IP; IFI16-IP: cleared cytosolic lysates of control and STING KO PMA-differentiated THP-1 cells, unstimulated or transfected with dsDNA (4 ug/ml) for 2 h (and 4 h); 6 ug anti-IFI16 overnight at 4 C, protein G Dynabeads, immunoblot

Row | Molecule | binding [1] | binding [2]
1 | interferon-gamma inducible factor 16 (IFI16), endogenous in primary human monocyte-derived macrophages (from UniProt Q16666 1-785) | binds | –
2 | TANK-binding kinase 1 (TBK1), endogenous in THP-1 cells (protein, UniProt Q9UHD2 1-729) MQSTSNHLWLLSDILGQGATANVFRGRHKKTGDLFAIKVFNNISFLRPVDVQMREFEVLKKLNHKNIVKLFAIEEETTTRHKVLIMEFCPCGSLYTVLEEPSNAYGLPESEFLIVLRDVVGGMNHLRENGIVHRDIKPGNIMRVIGEDGQSVYKLTDFGAARELEDDEQFVSLYGTEEYLHPDMYERAVLRKDHQKKYGATVDLWSIGVTFYHAATGSLPFRPFEGPRRNKEVMYKIITGKPSGAISGVQKAENGPIDWSGDMPVSCSLSRGLQVLLTPVLANILEADQEKCWGFDQFFAETSDILHRMVIHVFSLQQMTAHKIYIHSYNTATIFHELVYKQTKIISSNQELIYEGRRLVLEPGRLAQHFPKTTEENPIFVVSREPLNTIGLIYEKISLPKVHPRYDLDGDASMAKAITGVVCYACRIASTLLLYQELMRKGIRWLIELIKDDYNETVHKKTEVVITLDFCIRNIEKTVKVYEKLMKINLEAAELGEISDIHTKLLRLSSSQGTIETSLQDIDSRLSPGGSLADAWAHQEGTHPKDRNVEKLQVLLNCMTEIYYQFKKDKAERRLAYNEEQIHKFDKQKLYYHATKAMTHFTDECVKKYEAFLNKSEEWIRKMLHLRKQLLSLTNQCFDIEEEVSKYQEYTNELQETLPQKMFTASSGIKHTMTPIYPSSNTLVEMTLGMKKLKEEMEGVVKELAENNHILERFGSLTMDGGLRNVDCL | – | binds
3 | phosphorylated TANK-binding kinase 1 (phospho-TBK1), endogenous in THP-1 cells (protein, UniProt Q9UHD2 1-729, phosphorylated (detected with anti-phospho-TBK1; site not given)) MQSTSNHLWLLSDILGQGATANVFRGRHKKTGDLFAIKVFNNISFLRPVDVQMREFEVLKKLNHKNIVKLFAIEEETTTRHKVLIMEFCPCGSLYTVLEEPSNAYGLPESEFLIVLRDVVGGMNHLRENGIVHRDIKPGNIMRVIGEDGQSVYKLTDFGAARELEDDEQFVSLYGTEEYLHPDMYERAVLRKDHQKKYGATVDLWSIGVTFYHAATGSLPFRPFEGPRRNKEVMYKIITGKPSGAISGVQKAENGPIDWSGDMPVSCSLSRGLQVLLTPVLANILEADQEKCWGFDQFFAETSDILHRMVIHVFSLQQMTAHKIYIHSYNTATIFHELVYKQTKIISSNQELIYEGRRLVLEPGRLAQHFPKTTEENPIFVVSREPLNTIGLIYEKISLPKVHPRYDLDGDASMAKAITGVVCYACRIASTLLLYQELMRKGIRWLIELIKDDYNETVHKKTEVVITLDFCIRNIEKTVKVYEKLMKINLEAAELGEISDIHTKLLRLSSSQGTIETSLQDIDSRLSPGGSLADAWAHQEGTHPKDRNVEKLQVLLNCMTEIYYQFKKDKAERRLAYNEEQIHKFDKQKLYYHATKAMTHFTDECVKKYEAFLNKSEEWIRKMLHLRKQLLSLTNQCFDIEEEVSKYQEYTNELQETLPQKMFTASSGIKHTMTPIYPSSNTLVEMTLGMKKLKEEMEGVVKELAENNHILERFGSLTMDGGLRNVDCL | – | binds
